In US11324746B2, “Use of anagrelide for treating cancer” (Arovella Therapeutics Limited, priority 2014, dated 2022):

Assay: Plasma levels of anagrelide and metabolite after clinical oral dose
Type: in vivo, human
Conditions: 1 mg clinical dose

Row | Structure (SMILES) | peak plasma level relative to in vitro PDE III inhibitory IC50 [fold] | peak plasma level as share of in vitro PDEIII inhibitory IC50 [%]
1 | O=C1NC2=Nc3ccc(Cl)c(Cl)c3CN2C1O (centres unmarked) [3-hydroxy anagrelide] | ~40 | –
2 | O=C1CN2Cc3c(ccc(Cl)c3Cl)N=C2N1 [anagrelide] | – | 50
